Data: patent US4771122A, “Novel cyclosporins” (Sandoz Ltd., priority 1985, dated 1988)
Part of at least one peptide drawing is inferred or uncertain, most often the ends. Non-standard residues stand in square brackets, D forms with d. Residues, ends and D or L forms follow the SMILES beside them. NMe(dihydroBmt) = CCCC[C@@H](C)[C@@H](O)[C@H](NC)C(=O)O; dNMeGly(SMe) = CN[C@H](SC)C(=O)O; NMeL = CN[C@@H](CC(C)C)C(=O)O; NMeV = CN[C@H](C(=O)O)C(C)C

What was measured:
mouse-spleen lymphocytes = assay: Test 1.2: lymphocyte stimulation test according to Janossy and Greaves (concanavalin A stimulated DNA-synthesis); assay type: cell-based; conditions: 50% inhibition compared with untreated controls
haemolysis zones = assay: Test 1.1: local haemolysis in vitro in gel (Mishell and Dutton); assay type: cell-based; conditions: concentration giving 50% inhibition compared with untreated controls

Row | SMILES | TEST 1.2 IC50 (mouse-spleen lymphocytes) | TEST 1.1 IC50 (haemolysis zones)
1 | C/C=C/C[C@@H](C)[C@@H](O)[C@H]1C(=O)N[C@@H](CC)C(=O)N(C)[C@H](SC)C(=O)N(C)[C@@H](CC(C)C)C(=O)N[C@@H](C(C)C)C(=O)N(C)[C@@H](CC(C)C)C(=O)N[C@@H](C)C(=O)N[C@H](C)C(=O)N(C)[C@@H](CC(C)C)C(=O)N(C)[C@@H](CC(C)C)C(=O)N(C)[C@@H](C(C)C)C(=O)N1C [Example 23] | < 0.04 µg/mL | 0.046 µg/mL
2 | CCCC[C@@H](C)[C@@H](O)[C@H]1C(=O)N[C@@H](C(C)C)C(=O)N(C)[C@H](SC)C(=O)N(C)[C@@H](CC(C)C)C(=O)N[C@@H](C(C)C)C(=O)N(C)[C@@H](CC(C)C)C(=O)N[C@@H](C)C(=O)N[C@H](C)C(=O)N(C)[C@@H](CC(C)C)C(=O)N(C)[C@@H](CC(C)C)C(=O)N(C)[C@@H](C(C)C)C(=O)N1C [Example 36, [Dihydro-MeBmt]^1-[Val]^2-[(D)Methylthio-Sar]^3 -Cyclosporine] (cyclo(A[dA][NMeL][NMeL][NMeV][NMe(dihydroBmt)]V[dNMeGly(SMe)][NMeL]V[NMeL])) | – | 0.04 µg/mL
3 | C/C=C/C[C@@H](C)[C@@H](O)[C@H]1C(=O)N[C@@H](C(C)C)C(=O)N(C)[C@H](SC)C(=O)N(C)[C@@H](CC(C)C)C(=O)N[C@@H](C(C)C)C(=O)N(C)[C@@H](CC(C)C)C(=O)N[C@@H](C)C(=O)N[C@H](C)C(=O)N(C)[C@@H](CC(C)C)C(=O)N(C)[C@@H](CC(C)C)C(=O)N(C)[C@@H](C(C)C)C(=O)N1C [Example 21, [Val]^2-[(D)Methylthio-Sar]^3 -Cyclosporine] | – | 0.085 µg/mL
4 | C/C=C/C[C@@H](C)[C@@H](O)[C@H]1C(=O)N[C@@H](CC)C(=O)N(C)[C@H](C)C(=O)N(C)[C@@H](CC(C)C)C(=O)N[C@@H](C(C)C)C(=O)N(C)[C@@H](CC(C)C)C(=O)N[C@@H](C)C(=O)N[C@H](C)C(=O)N(C)[C@@H](CC(C)C)C(=O)N(C)[C@@H](CC(C)C)C(=O)N(C)[C@@H](C(C)C)C(=O)N1C [Example 1, [(D)MeAla]^3 -Cyclosporine] | < 0.04 µg/mL | 0.06 µg/mL
